# Laboratory results published in PubChem BioAssay AID2549 (National Center for Advancing Translational Sciences (NCATS), 2010).
# Protein sequences, listed by entry. Tags and fused reporters are not part of them. Lines headed by an entry give the natural chain unless they say otherwise; changes in a name come on top.
# UniProt P46063: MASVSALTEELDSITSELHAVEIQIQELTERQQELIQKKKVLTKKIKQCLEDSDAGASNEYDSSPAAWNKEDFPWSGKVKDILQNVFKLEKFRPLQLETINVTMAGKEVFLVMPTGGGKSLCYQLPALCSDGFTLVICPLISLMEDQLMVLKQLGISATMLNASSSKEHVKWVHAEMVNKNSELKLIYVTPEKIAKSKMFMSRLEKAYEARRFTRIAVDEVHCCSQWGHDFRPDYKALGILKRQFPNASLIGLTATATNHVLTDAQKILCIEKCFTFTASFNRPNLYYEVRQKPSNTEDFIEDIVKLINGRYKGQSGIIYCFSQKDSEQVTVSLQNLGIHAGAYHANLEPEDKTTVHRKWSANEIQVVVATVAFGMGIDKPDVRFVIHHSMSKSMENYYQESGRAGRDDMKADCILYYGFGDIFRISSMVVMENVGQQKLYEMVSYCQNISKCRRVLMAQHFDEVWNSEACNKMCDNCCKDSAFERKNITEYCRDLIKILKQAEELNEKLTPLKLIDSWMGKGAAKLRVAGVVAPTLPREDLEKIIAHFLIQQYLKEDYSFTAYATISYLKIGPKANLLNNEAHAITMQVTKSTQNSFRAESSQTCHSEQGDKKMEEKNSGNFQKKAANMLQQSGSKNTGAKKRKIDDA
# Values joined by “and” are separate entries in the source; they are usually repeats but may differ in a detail not shown here. Equal values may be shown once. About 1,300 (0.54%) of roughly 240,000 compounds were called active. The shares of active, inactive and inconclusive entries below differ from those in the screen. Calls come from the whole dose curve; as a rule, active = well fitted inhibition curve with a large enough effect; inconclusive = small, poorly fitted or top-dose-only effect; inactive = flat fitted curve, though single readings scatter. A potency beside an inconclusive call is a rough fit, not a confirmed value.
# Molecular target: ATP-dependent DNA helicase Q1 (Homo sapiens) (UniProt P46063)
# Assay: qHTS Assay for Inhibitors of RecQ-Like Dna Helicase 1 (RECQ1); note: nearly all actives have a fitted effect of over 30% in size;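 for activity, negative = inhibition: plate controls were vehicle for no effect and no enzyme for full effect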
# Conditions: RECQ1 DNA unwinding, red fluorescence kinetic read; activity, negative = inhibition: at 57.3 µM (top of the series); series mostly up to 57.3 µM
# In short: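 50 nM RECQ1T1 preincubated 15 min with compound in Tris pH 8.0 buffer with MgCl2, DTT, Tween-20 and 2.5 ug/ml poly(dI-dC); started with 200 nM TAMRA/BHQ-2 forked duplex and 2 mM ATP. Unwinding read as fluorescence (525/598 nm), two reads 2 h apart.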
# Potency is the fitted concentration of half-maximal effect.
SMILES,Potency,"activity, negative = inhibition"
O=C(C/C=N/OCc1ccc(Cl)cc1Cl)c1ccc(Cl)cc1,"inconclusive: 14.1 µM [inhibitor, partial curve]",
COc1ccccc1CNc1ncnc2ccc(-c3cccc(C#N)c3)cc12,inactive,
Cc1ccc(CNC(=O)CCS(=O)(=O)c2ccc(Cl)cc2)cc1,inactive,
CC(C)NC[C@@H](O)COc1cccc2ccccc12,inactive,
CC1(C)OC(=O)C(=Cc2ccc(-c3ccc(S(N)(=O)=O)cc3)o2)C(=O)O1,inactive,
COC(=O)C(Cc1cnc(Cl)s1)(C(=O)OC)c1ccc([N+](=O)[O-])cc1,"inconclusive: 0.178 µM [inhibitor, full curve, poor fit]",
O=C(CSc1ncnc2sc3c(c12)CCCC3)c1ccco1,"inconclusive: 15.8 µM [inhibitor, single point]",
CC(=O)CCc1c(C)c2cc(C)ccc2[nH]c1=O,"inconclusive: 3.98 µM [inhibitor, single point]",
c1cncc(-c2nc(-n3ccnc3)c3ccccc3n2)c1,inactive,
COc1ccc(CCNC(=O)C2CC2)cc1OC,inactive,
CCOc1c(CNCCNC(=O)c2nonc2N)cccc1OC,"inconclusive: 0.199 µM [inhibitor, full curve, poor fit]",
COc1ccc(-n2ccnc2SCC(=O)NC2CCCC2)c(OC)c1,"inconclusive: 7.94 µM [inhibitor, single point]",
c1ccc(CC2CCN(c3nc4ccccc4n4nnnc34)CC2)cc1,"inconclusive: 35.5 µM [inhibitor, partial curve]",
NCCNCCN,active: 5.62 µM,
O=C1NC(=S)N/C1=C/c1cccn1-c1ccc([N+](=O)[O-])cc1,active: 28.2 µM,
N#Cc1cccnc1N1CCC(C(N)=O)CC1,"inconclusive: 31.6 µM [inhibitor, single point]",
COc1ccc(-n2nnnc2SCC(N)=O)cc1,inactive,
COc1ccc(C(=O)NCc2nnc(SCC(=O)Nc3nc4ccc(C)cc4s3)o2)cc1OC,"inconclusive: 5.01 µM [inhibitor, full curve, poor fit]",
COC(=O)c1sc(NC(=S)NC(=O)c2cccc(C)c2)nc1C,"inconclusive: 0.708 µM [inhibitor, full curve]",
CCN(CC)S(=O)(=O)c1ccc(NS(=O)(=O)c2cccc(C)c2)cc1,inactive,
O=C1c2ccccc2-c2onc3ccc(N4CCCC4)c1c23,active: 14.1 µM,
CC(C)[C@H]1CN=C2N(C[C@H](C)NC(=O)CCC3CCCCC3)[C@H](Cc3ccc(O)cc3)CN21,"inconclusive: 2.24 µM [inhibitor, full curve]",
COc1ccc(CCNC(=O)c2ccc3nc(-c4ccco4)c(-c4ccco4)nc3c2)cc1OC,active: 15.8 µM,
CCCCCCCCCCCCC(O)C(=O)O (stereo unspecified),inactive,
O=C(COc1cccnc1[N+](=O)[O-])c1ccc(Cl)s1,"inconclusive: 31.6 µM [inhibitor, single point]",
O=C(c1ccc(Br)s1)N1CCN(c2ncccn2)CC1,"inconclusive: 3.98 µM [inhibitor, partial curve]",

# A different layout for 17 compounds above.
SMILES | Potency | activity, negative = inhibition
CC(=O)CCc1c(C)c2cc(C)ccc2[nH]c1=O | inconclusive: 3.98 µM [inhibitor, single point] | 
c1cncc(-c2nc(-n3ccnc3)c3ccccc3n2)c1 | inactive | 
COc1ccc(CCNC(=O)C2CC2)cc1OC | inactive | 
CCOc1c(CNCCNC(=O)c2nonc2N)cccc1OC | inconclusive: 0.199 µM [inhibitor, full curve, poor fit] | 
COc1ccc(-n2ccnc2SCC(=O)NC2CCCC2)c(OC)c1 | inconclusive: 7.94 µM [inhibitor, single point] | 
c1ccc(CC2CCN(c3nc4ccccc4n4nnnc34)CC2)cc1 | inconclusive: 35.5 µM [inhibitor, partial curve] | 
NCCNCCN | active: 5.62 µM | 
O=C1NC(=S)N/C1=C/c1cccn1-c1ccc([N+](=O)[O-])cc1 | active: 28.2 µM | 
N#Cc1cccnc1N1CCC(C(N)=O)CC1 | inconclusive: 31.6 µM [inhibitor, single point] | 
COc1ccc(-n2nnnc2SCC(N)=O)cc1 | inactive | 
COc1ccc(C(=O)NCc2nnc(SCC(=O)Nc3nc4ccc(C)cc4s3)o2)cc1OC | inconclusive: 5.01 µM [inhibitor, full curve, poor fit] | 
COC(=O)c1sc(NC(=S)NC(=O)c2cccc(C)c2)nc1C | inconclusive: 0.708 µM [inhibitor, full curve] | 
CCN(CC)S(=O)(=O)c1ccc(NS(=O)(=O)c2cccc(C)c2)cc1 | inactive | 
O=C1c2ccccc2-c2onc3ccc(N4CCCC4)c1c23 | active: 14.1 µM | 
CC(C)[C@H]1CN=C2N(C[C@H](C)NC(=O)CCC3CCCCC3)[C@H](Cc3ccc(O)cc3)CN21 | inconclusive: 2.24 µM [inhibitor, full curve] | 
COc1ccc(CCNC(=O)c2ccc3nc(-c4ccco4)c(-c4ccco4)nc3c2)cc1OC | active: 15.8 µM | 
CCCCCCCCCCCCC(O)C(=O)O (stereo unspecified) | inactive | 

# The list continues.

SMILES,Potency,"activity, negative = inhibition"
COc1ccc(-n2cc3c(-c4cccc(Br)c4)nnc(C)c3n2)cc1,"inconclusive: 0.891 µM [inhibitor, single point]",
CCC(=O)OC1(C)C(=O)C2=COC(c3ccc(OC)cc3)=CC2=C(Br)C1=O (stereo unspecified),"inconclusive: 7.08 µM [inhibitor, single point]",
CNc1cc(CS(=O)c2ccccc2)nc(-c2ccccc2)n1 (stereo unspecified),"inconclusive: 8.91 µM [inhibitor, single point]",
COc1cc(/C=C/[N+](=O)[O-])ccc1OCc1cccc(C(=O)O)c1,active: 20 µM,
CC1CCC2C(=O)N3CCCC3C(=O)N2C1c1ccc(Br)cc1 (stereo unspecified),,inactive: -5.6% [at 11.5 µM] and inactive: 3.95% [at 11.5 µM]
CN(C)c1ccc(/C=C2\SC(=S)N(Nc3ncc(C(F)(F)F)cc3Cl)C2=O)cc1,active: 10 µM,
Cc1cc(C)n(-c2nc(Nc3ccccc3)nc(-n3nc(C)cc3C)n2)n1,inactive,
O=C(N/N=C/c1ccncc1)c1ccc(NC(=O)c2ccc(Cl)cc2)cc1,"inconclusive: 3.98 µM [inhibitor, partial curve]",
Cc1ccc(NC(=O)c2cc(-c3ccco3)nc3ccccc23)cc1S(=O)(=O)N1CCOCC1,"inconclusive: 39.8 µM [inhibitor, single point]",
CC1(C)N=C(c2ccc(Cl)cc2)C(=O)N1,active: 35.5 µM,
CC(=O)c1ccc(NC(=O)c2ccc3nc(-c4ccco4)c(-c4ccco4)nc3c2)cc1,active: 8.91 µM,
O=C1CC(Nc2ccc(N3CCOCC3)cc2)C(=O)N1c1cccc(C(F)(F)F)c1 (stereo unspecified),"inconclusive: 35.5 µM [inhibitor, single point]",
CCOC(=O)c1ccc(N2N=C(C)/C(=C/C=C/c3ccco3)C2=O)cc1,"inconclusive: 25.1 µM [inhibitor, single point]",
Oc1ccc(-c2cn3c(n2)SCC3)cc1O,active: 2.51 µM,
O=S(=O)(N/N=C/c1ccccc1OCc1ccc(Cl)cc1)c1ccccc1,"inconclusive: 35.5 µM [inhibitor, single point]",
O=S(=O)(Nc1cccc2ccccc12)c1ccccc1,"inconclusive: 7.08 µM [inhibitor, single point]",
CSc1nsc(/C=C/Nc2ccc(O)cc2C)c1C#N,"inconclusive: 39.8 µM [inhibitor, single point]",
O=C(/C=C/c1ccco1)NC(=S)Nc1ccc(Cl)cn1,active: 25.1 µM,
CC1(C)OC(=O)C(=CNc2cccc(O)c2)C(=O)O1,inactive,
S=C(NCCSCc1c(Cl)cccc1Cl)Nc1ccccc1,active: 12.6 µM,
Cc1cc(C)nc(N2CCCC(C(=O)Nc3nc4ccc(S(C)(=O)=O)cc4s3)C2)n1 (stereo unspecified),"inconclusive: 5.01 µM [inhibitor, partial curve]",
O=C(Cc1ccc(S(=O)(=O)N2CCOCC2)s1)Nc1nc2c(s1)CCCC2,active: 10 µM,
O=C(Nc1ccc(C2=NCCN2)cc1)c1ccc(C(=O)Nc2ccc(C3=NCCN3)cc2)c(Cl)c1,inactive,
NNc1nncc2ccccc12,inactive,
N[C@](CC1c2ccccc2Oc2ccccc21)(C(=O)O)[C@H]1C[C@@H]1C(=O)O,inactive,
CNC(=O)CS(=O)CC(=O)Nc1cc(OCCOC)c(Cl)cc1Cl (stereo unspecified),"inconclusive: 0.141 µM [inhibitor, partial curve, poor fit]",

SMILES,Potency,"activity, negative = inhibition"
COc1ccccc1CNC(=O)c1c(O)c2cc(OC)c(OC)cc2[nH]c1=O,inactive,
O=C1NC(=O)/C(=C/c2ccc(O)cc2)S1,inactive,
COc1cc(OC)c2c(-c3ccccc3)cc(=O)oc2c1C(CC(=O)N1CCOCC1)c1ccc2c(c1)OCO2 (stereo unspecified),"inconclusive: 7.08 µM [inhibitor, single point]",
N=c1c[n+](N2CCOCC2)[n-]o1,inactive,
N=C1/C(=C\c2ccc(SCc3ccccc3)o2)C(=O)N=C2SC(CC(=O)N3CCOCC3)=NN12,"inconclusive: 39.8 µM [inhibitor, single point]",
CC(=O)OCC1=C(C(=O)O)N2C(=O)C(NC(=O)CSc3ccncc3)[C@@H]2SC1 (stereo partly specified),inactive,
CCOC(=O)c1c(NC(C)=O)sc2c(O)c(CN3CCN(CC)CC3)ccc12,"inconclusive: 0.1 µM [inhibitor, full curve, poor fit]",
CC(=O)N1N=C(c2ccccc2)OC1c1ccc([N+](=O)[O-])s1 (stereo unspecified),active: 35.5 µM,
COc1ccc(CNc2ccnc(-c3ccc(N(C)C)cc3)n2)c(OC)c1,inactive,
Cc1cc[n+](CC(=O)c2ccccc2)c2ccccc12,"inconclusive: 25.1 µM [inhibitor, single point]",
COc1ccccc1Nc1ccc([N+](=O)[O-])cc1N,"inconclusive: 1.41 µM [inhibitor, full curve, poor fit]",
O=C(CO)[C@@H](O)C(O)[C@@H](O)CO (stereo partly specified),inactive,
Cc1ccc(N=C2NC(=O)/C(=C/c3cccnc3)S2)c(C)c1,"inconclusive: 5.01 µM [inhibitor, partial curve, poor fit]",
O=C1c2ccccc2C(=O)c2c1ccc(O)c2O,"inconclusive: 15.8 µM [inhibitor, partial curve, poor fit]",
COc1cccc(/C=N/Nc2nc(Nc3ccc([N+](=O)[O-])cc3)nc(N3CCCC3)n2)c1O,"inconclusive: 35.5 µM [inhibitor, single point]",
O=C(c1ccco1)N1CCN(c2ncnc3sc4c(c23)CCC4)CC1,"inconclusive: 39.8 µM [inhibitor, partial curve]",
COc1ccc(-c2nc3ccc(C(=O)NCC(OC)OC)cc3nc2-c2ccc(OC)cc2)cc1,active: 22.4 µM,
Cc1c2cnn(CC(=O)Nc3c(F)c(F)cc(F)c3F)c(=O)c2c(C)n1Cc1ccccc1F,active: 25.1 µM,
N#Cc1c(-c2ccco2)cc(-c2ccc(F)cc2)nc1N,inactive,
CCN(CC)C(=O)CC(c1ccccc1)c1ccco1 (stereo unspecified),"inconclusive: 15.8 µM [inhibitor, partial curve, poor fit]",
O=C(NC(=S)NCCc1ccccc1)C1CCCCC1,"inconclusive: 0.0251 µM [inhibitor, full curve, poor fit]",
COc1cc2c(cc1OC)-c1cc(Nc3ccc4c(c3)OCCO4)nc(=O)n1CC2,"inconclusive: 8.91 µM [inhibitor, partial curve]",
O=C1NC(=S)S/C1=C\c1ccc(SCc2ccco2)o1,active: 5.01 µM,
Oc1[nH]c(=S)sc1/C=C1\C(c2ccccc2)=Nc2ccccc21,"inconclusive: 39.8 µM [inhibitor, single point]",
